From PubChem BioAssay AID2551 (National Center for Advancing Translational Sciences (NCATS), 2010)
The whole screen tested about 310,000 compounds, of which about 17,000 (5.5%) were called active. The inconclusive results got no clear call from the source; some entries with a clear call stand among them for comparison. Calls follow the shape of the dose curve; as a rule, active = well fitted inhibition curve with a large enough effect; inconclusive = small, poorly fitted or top-dose-only effect, or effect the other way; inactive = no such curve, though single readings can be large or run the other way. Potencies beside an inconclusive call are fits to weak or partial responses and may not hold up.

Protein sequences, listed by entry. Tags and fused reporters are not part of them. Lines headed by an entry give the natural chain unless they say otherwise; changes in a name come on top.
UniProt P51450: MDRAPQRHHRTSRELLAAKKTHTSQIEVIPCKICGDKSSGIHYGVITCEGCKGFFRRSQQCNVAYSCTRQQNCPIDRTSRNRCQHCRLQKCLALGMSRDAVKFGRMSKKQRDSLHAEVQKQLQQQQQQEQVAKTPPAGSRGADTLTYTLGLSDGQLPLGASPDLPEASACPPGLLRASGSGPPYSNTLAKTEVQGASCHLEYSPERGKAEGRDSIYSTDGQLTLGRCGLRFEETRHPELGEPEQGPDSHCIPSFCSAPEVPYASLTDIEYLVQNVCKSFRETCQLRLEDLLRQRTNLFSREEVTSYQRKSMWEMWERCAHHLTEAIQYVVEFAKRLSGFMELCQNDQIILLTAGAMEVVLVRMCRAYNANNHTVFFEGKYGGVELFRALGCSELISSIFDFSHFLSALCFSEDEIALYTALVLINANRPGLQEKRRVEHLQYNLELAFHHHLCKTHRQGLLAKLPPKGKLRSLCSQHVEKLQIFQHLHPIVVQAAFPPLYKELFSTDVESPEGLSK

Target: Nuclear receptor ROR-gamma (Mus musculus) (UniProt P51450)
Experiment: qHTS for inhibitors of ROR gamma transcriptional activity; also: nearly all actives have a fitted effect of over 60% in size
Details: Drosophila S2 Gal4-RORgamma UAS-luciferase reporter, 20 h; activity change, negative = inhibition: at 53.6 µM (top of the series)
Outline: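 A Gal4/UAS one-hybrid system in insect cells: metallothionein-promoter Gal4–ROR gamma fusion plus Photinus luciferase reporter. Copper sulfate 700 uM final, 20 hr ambient incubation, luminescent detection after 10 min with reagent.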
% is scaled to controls: 0 for no effect and ±100 for the full control effect; potency is read from the fitted curve at half-maximal effect.

Potency, active:
O=C(Oc1cccc2cccnc12)c1cccc(N2C(=O)C3C4CCC(C4)C3C2=O)c1 (stereo not drawn) 2.51 µM
O=C(NC1CCCCC1)C(c1cccnc1)N(C(=O)CCl)c1cccc(Cl)c1 (stereo not drawn) 12.6 µM
CC1CC(NNC(=O)c2ccccc2)=Nc2ccccc2N1C (stereo not drawn) 1.78 µM
C/C(=N\NC(=O)c1ccc(F)cc1)c1ccccn1 0.251 µM
O=C(NNC(=O)c1ccccc1OCc1ccccc1)c1ccccc1O 6.31 µM
COc1ccc(/C=N/NC(=S)N[C@H]2CC3CCC2C3)cc1 (stereo partly drawn) 0.631 µM
COCc1nnc(NC(=O)c2ccc(S(=O)(=O)N3CCCCCC3)cc2)o1 2.24 µM
O=C(CSc1nc(CCC2CCCC2)nc2ccccc12)NCc1ccc2c(c1)OCO2 15.8 µM
COc1ccccc1N1C(=O)CC(Sc2nc(C)cc(C)n2)C1=O (stereo not drawn) 11.2 µM
Cc1nc(-c2ccc(C(F)(F)F)cc2)sc1C(=O)NN 4.47 µM
Cc1oc2cc3oc(=O)c(CCC(=O)NCc4ccccn4)c(C)c3cc2c1C 6.31 µM
COc1cc(NC(=O)Cn2ncc(Cl)c(Cl)c2=O)c(C)cc1[N+](=O)[O-] 2 µM

Potency, inconclusive:
CC12CC3CC(C)(C1)CC(C(=O)Nc1nncs1)(C3)C2 17.8 µM [inhibitor, single point]
N#Cc1ccc(-c2ccc(Cl)cc2)nc1Oc1ccc(F)cc1 35.5 µM [inhibitor, single point]
COc1ccc(Oc2coc3cc(OCC(=O)N4CCCCC4)ccc3c2=O)cc1 15.8 µM [activator, single point]
Nc1nc(-c2ccccc2)cc(-c2ccccc2O)n1 22.4 µM [activator, single point]
O=C(Nc1nnc(SCc2ccc(F)cc2)s1)C1Cc2ccccc2CN1C(=O)c1ccco1 (stereo not drawn) 11.2 µM [inhibitor, partial curve, poor fit]
Fc1ccccc1N1CCN(c2ncnc3[nH]ncc23)CC1 35.5 µM [activator, single point]
Cc1ccc2c(c1)N(CCC(=O)NCc1ccco1)C(=O)CO2 1 µM [inhibitor, full curve]
O=C(/C=C/c1ccccc1)NC(=S)Nc1ccccc1O 15.8 µM [inhibitor, single point]
Cc1ccc(Nc2cc(=O)n(C3CCCCC3)c(=O)[nH]2)cc1C 7.08 µM [activator, partial curve, poor fit]
Cc1c(-c2ccccc2)n[nH]c1C(=O)N=Nc1c(O)[nH]c2ccccc12 15.8 µM [inhibitor, single point]
CC(Nc1nc(=S)nc(Nc2ccc(F)cc2)[nH]1)c1ccccc1 (stereo not drawn) 0.562 µM [inhibitor, single point]
C/C(CC(=O)N(C(C)C)C(C)C)=N\NC(=O)COc1ccc(Br)cc1Br 35.5 µM [inhibitor, single point]
O=C1CS/C(=C/C(=O)c2ccccc2)N1 25.1 µM [inhibitor, single point]
CC(C)Nc1nnc(SC(C)C(=O)Nc2ccc(Cl)cn2)s1 (stereo not drawn) 7.94 µM [inhibitor, partial curve, poor fit]
CCCc1ccc(Oc2cc(C)nc(N3CCOCC3)n2)cc1 0.631 µM [activator, full curve, poor fit]
Cc1cc(C(=O)OCc2nnc(-c3ccccc3)o2)c(C)n1-c1ccccc1 22.4 µM [activator, single point]
CC(C)(C)c1ccc(O)c(O)c1 22.4 µM [inhibitor, single point]
CC(=O)Nc1ccc(NC(=O)c2ccccc2N(C)S(=O)(=O)c2ccc(C)cc2)cc1 15.8 µM [activator, single point]
FC(F)(F)C1CCCN(c2nsc3ccccc23)C1 (stereo not drawn) 20 µM [inhibitor, single point]
COc1ccc(NC(=O)C2CCN(S(=O)(=O)c3cccc4nonc34)CC2)cc1OC 7.94 µM [activator, partial curve]
COc1ccccc1OC(C)C(=O)NNC(=S)NC1CCCC1 (stereo not drawn) 2 µM [inhibitor, full curve, poor fit]
O=C(CN1C(=O)NC(Cc2c[nH]c3ccccc23)C1=O)Nc1cccc(S(=O)(=O)N2CCCCCC2)c1 (stereo not drawn) 5.01 µM [activator, single point]
Cc1ccc([N+](=O)[O-])cc1NC(=S)NC(=O)C(C)(C)C 3.55 µM [activator, single point]
O=S(=O)(Nc1nc2ccccc2nc1Nc1cccc(S(=O)(=O)N2CCCCC2)c1)c1ccccc1 35.5 µM [inhibitor, single point]
Cc1nn(C(C)C)c(C)c1CN1CCC(C(=O)Nc2cccc(-c3cccc(F)c3)c2)CC1 12.6 µM [inhibitor, partial curve, poor fit]
COc1ccccc1/C=C/C=N/n1c(-c2ccccn2)n[nH]c1=S 7.94 µM [inhibitor, partial curve, poor fit]
S=c1nc(-c2ccco2)[nH][nH]1 11.2 µM [inhibitor, single point]
O=C(Nc1cnccn1)c1csc2ccccc12 2.51 µM [activator, full curve]
CCOC(=O)C1(CCOc2ccccc2)CCN(Cc2cccs2)CC1 10 µM [activator, partial curve]
COCCNC(=O)NC1(C(F)(F)F)Oc2ccc(Cl)cc2O1 (stereo not drawn) 22.4 µM [inhibitor, single point]
Cc1ccc(C)c(NC(=O)c2ccccc2O)c1 35.5 µM [inhibitor, single point]
Cc1ccc(OC(=O)c2cccc([N+](=O)[O-])c2)c(-n2nc3ccccc3n2)c1 2.51 µM [activator, partial curve]
Cc1cc([N+](=O)[O-])nn1CC(=O)N/N=C/c1ccc(O)cc1O 20 µM [inhibitor, single point]
N#C/C(=C\c1ccc([N+](=O)[O-])cc1)C(=O)Nc1ccccc1O 12.6 µM [inhibitor, single point]
O=S(=O)(Nc1nc(SCc2ccc(Cl)cc2)n[nH]1)c1ccccc1 35.5 µM [activator, single point]
O=C(CCl)Nc1ccccc1C(=O)c1ccccc1 12.6 µM [inhibitor, single point]
Clc1ccc2oc(-c3ccccn3)nc2c1 5.62 µM [inhibitor, single point]
O=C(Nc1nccs1)c1cccc(S(=O)(=O)N2CCCC2)c1 0.0251 µM [inhibitor, full curve, poor fit]
CCCCN1C(=O)Cc2c1nc(N)c1c(N)nc(N(CCC)CCC)c(C#N)c21 3.16 µM [inhibitor, single point]
COc1cc2cc(NC(C)=O)cc(NCc3ccccc3)c2cc1OC 15.8 µM [activator, single point]
CN(C)S(=O)(=O)c1cccc(NC(=S)NC(=O)C2CCCCC2)c1 31.6 µM [inhibitor, single point]
CCN1CCN(CCCNC(=O)c2ccc3c(c2)NC(=O)/C(=C\c2cccc(C)c2)S3)CC1 20 µM [inhibitor, single point]
O=C(CSc1nc2nccnc2c(=O)n1Cc1cccs1)Nc1ccccc1F 14.1 µM [activator, single point]

Activity change, negative = inhibition, inactive:
CCOC(=O)C1CCN(Cc2cccc(Oc3ccc(Cl)cc3)c2)CC1 -14.3% [at 1.91 µM]
CC1=CC(C)(C)Nc2ccc(OC(=O)CN3C(=O)c4cccc5cccc(c45)C3=O)cc21 -37.7%
Cc1noc(C)c1CSc1ccccc1C(=O)O -10.3%
O=c1[nH]cnc2nc[nH]c12 -5.08%
COc1ccc(NC(=O)C2C3C=CC4(O3)C2C(=O)N(CCN2CCCCC2)C4C(=O)NC2CCCC(C)C2C)cc1 (stereo not drawn) -0.233%
Cc1nc(-c2ccncc2)nc(NCCNc2ncccc2C(F)(F)F)c1Cl -14.4%
CC(C)c1nc2sc3c(NCc4ccco4)ncnc3c2c2c1COC(C)(C)C2 36.4%
Cc1ccc(SCCN2CCC(NC(=O)OCc3ccccc3)CCC2=O)cc1 (stereo not drawn) 1.87%
COc1ccc(CCNC(=O)c2c[nH]c3ccc(F)cc3c2=O)cc1OC 2.82% [at 1.91 µM]
CC(C)c1[nH]nc2c1C(c1ccco1)C(C#N)=C(N)O2 (stereo not drawn) 10.4%
O=C(NC1CCCCC1)n1c(=O)oc2ccccc21 13.4%
Cn1cnnc1Sc1ccc(C(=O)OCC(=O)NCC(F)(F)F)cc1[N+](=O)[O-] 24.9%
Cn1c(=O)[nH]c(=O)c2[nH]c(N(Cc3ccccc3)Cc3ccccc3)nc21 -25.8%
C[N+](C)(CC#N)C/C=C\c1ccccc1 3.74%
c1cc2c3c(cccc3c1)NC1(CCC3(CC1)Nc1cccc4cccc(c14)N3)N2 17.8%
COc1ccc(/C(C)=N/NC2=NCCN2)cc1Cl 8.94%
CC(C)c1nc2oc3c(NCc4cccnc4)ncnc3c2c2c1CCC2 -3.54%
COc1cc(O)c(C(=O)O)c(O)c1 0.57%

As a short view, some entries already given:
Activity change, negative = inhibition, inactive:
CCOC(=O)C1CCN(Cc2cccc(Oc3ccc(Cl)cc3)c2)CC1 -14.3% [at 1.91 µM]
CC1=CC(C)(C)Nc2ccc(OC(=O)CN3C(=O)c4cccc5cccc(c45)C3=O)cc21 -37.7%
Cc1noc(C)c1CSc1ccccc1C(=O)O -10.3%
O=c1[nH]cnc2nc[nH]c12 -5.08%
COc1ccc(NC(=O)C2C3C=CC4(O3)C2C(=O)N(CCN2CCCCC2)C4C(=O)NC2CCCC(C)C2C)cc1 (stereo not drawn) -0.233%
Cc1nc(-c2ccncc2)nc(NCCNc2ncccc2C(F)(F)F)c1Cl -14.4%
CC(C)c1nc2sc3c(NCc4ccco4)ncnc3c2c2c1COC(C)(C)C2 36.4%
